Data published in patent US10370387B2, “Tricyclic fused thiophene derivatives as JAK inhibitors” (Incyte Corporation, priority 2012, dated 2019).
For at least one compound, name, drawing or mass did not settle the structure.

Test system: human JAK1
Test: In vitro JAK kinase assay (HTRF, phosphorylation of biotinylated peptide), JAK1
Format: biochemical
Conditions: ratio of JAK2 IC50 to JAK1 IC50, 1 mM ATP
Method: Compounds herein were tested for inhibitory activity of JAK targets according to the following in vitro assay described in Park et al., Analytical Biochemistry 1999, 269, 94-104. The catalytic domains of human JAK1 (a.a. 837-1142), JAK2 (a.a. 828-1132) and JAK3 (a.a. 781-1124) were expressed using baculovirus in insect cells and purified. The catalytic activity of JAK1, JAK2 or JAK3 was assayed by measuring the phosphorylation of a biotinylated peptide. The phosphorylated peptide was detected by homogenous time resolved fluorescence (HTRF). IC50s of compounds were measured for each kinase in the 40 μL reactions that contain the enzyme, ATP and 500 nM peptide in 50 mM Tris (pH 7.8) buffer with 100 mM NaCl, 5 mM DTT, and 0.1 mg/mL (0.01%) BSA. For the 1 mM IC50 measurements, ATP concentration in the reactions was 1 mM. Reactions were carried out at room temperature for 1 hour and then stopped with 20 μL 45 mM EDTA, 300 nM SA-APC, 6 nM Eu-Py20 in assay buffer (Perkin Elmer, Boston, Mass.). Binding to the Europium labeled antibody took place for 40 minutes and HTRF signal was measured on a PHERA star plate reader (BMG, Cary, N.C.). The Example compounds were each tested in the Example A assay (see Table 1 for data for the compounds of the examples as tested by the assay of Example A at 1 mM ATP).

SMILES: Cc1nn2cnc3ccsc3c2c1[C@H]1CC[C@H](CC#N)CC1 [Example 77, [trans-4-(8-Methylpyrazolo[1,5-c]thieno[2,3-e]pyrimidin-9-yl)cyclohexyl]acetonitrile]
- JAK2/JAK1: >5
